Survivor count and T/C data for 26 compounds are collected here from PubChem BioAssay AID330 (DTP/NCI, 2004).

SMILES strings stand for the structures. The list does not hold the whole screen: it gathers tests that were run many times, whatever their T/C, doses with no T/C, and many T/C values between a quarter and a half above the control. Other doses and runs of a compound stand elsewhere. T/C is the treated group as % of the vehicle group. Some entries give survivors of the animals treated and no T/C: the source files T/C as zero there, which appears to mark a toxic dose or a test without result, not a measured value. Some survivor counts are full or nearly so, which does not show that the dose was tolerated: survival well below the control is almost never listed, so the zero probably covers shortened survival too. Counts of survivors are from the toxicity check (mostly the fifth day) where no day follows; animals may have died later. Schedules are NCI's codes, taken here to give the interval after Q, in days (D) or hours (H), and the number of doses after X. Where survival is the endpoint, this PubChem deposit counts one and a half times the control or more as active, and values a quarter to a half above the control carry no call in these data; other NCI protocols may use other cut-offs.

This experiment has as its system P388 leukemia ip, CD2F1 mice, survival T/C. As to the kind of experiment: NCI In Vivo Anticancer Drug Screen. Data for tumor model P388 Leukemia (intraperitoneal) in CD2F1 (CDF1) mice. The settings on record: T/C endpoint: median survival time, higher T/C = longer survival.
Where [1] appears, read: dose: 200.0 mg/kg/injection, schedule: Q01DX009 (ip), vehicle: Klucel (hydroxypropylcellulose) (HPC).
[2] abbreviates: dose: 200.0 mg/kg/injection, schedule: Q01DX005 (ip), vehicle: Klucel (hydroxypropylcellulose) (HPC).
Setting [3] is: dose: 240.0 mg/kg/injection, schedule: Q01DX005 (ip), vehicle: saline with Tween-80.
[4] abbreviates: dose: 100.0 mg/kg/injection, schedule: Q01DX005 (ip), vehicle: Klucel (hydroxypropylcellulose) (HPC).
Setting [5] is: dose: 100.0 mg/kg/injection, schedule: Q01DX005 (ip), vehicle: saline.
Where [6] appears, read: dose: 200.0 mg/kg/injection, schedule: Q01DX005 (ip), vehicle: saline.

Regarding `CCC1(O)C(=O)OCc2c1cc1n(c2=O)Cc2cc3cc4c(cc3nc2-1)OCO4` (centres undefined), the survivor count by setting is: (dose: 4.0 mg/kg/injection, schedule: Q01DX005 (ip), vehicle: saline with Tween-80) 6 of 6; (dose: 8.0 mg/kg/injection, schedule: Q01DX005 (ip), vehicle: saline with Tween-80) 6 of 6; (dose: 16.0 mg/kg/injection, schedule: Q01DX005 (ip), vehicle: saline with Tween-80) 4 of 6.
In the case of `CCCC1(CC(=O)O)OCCc2c1[nH]c1ccccc21` (centres undefined), under setting [1], the survivor count was 3 of 6.
On to `C=C(C(=O)N(C(C)C)C(C)C)C(C)C(C)(C)O` (centres undefined), for which the survivor count runs as follows: (dose: 200.0 mg/kg/injection, schedule: Q04DX002 (ip), vehicle: Klucel (hydroxypropylcellulose) (HPC)) 0 of 6; (dose: 400.0 mg/kg/injection, schedule: Q04DX002 (ip), vehicle: Klucel (hydroxypropylcellulose) (HPC)) 0 of 6.
For `S=C(Nc1ccc(N=Nc2ccccc2)cc1)SCc1ccc(Cl)cc1`, the survivor count runs as follows: (dose: 50.0 mg/kg/injection, schedule: Q01DX009 (ip), vehicle: suspension in saline) 4 of 6; (dose: 100.0 mg/kg/injection, schedule: Q01DX009 (ip), vehicle: suspension in saline) 6 of 6.
As for `O=C(O)CCCCc1ccc(CCCCC(=O)O)cc1`, the survivor count (dose: 75.0 mg/kg/injection, schedule: Q04DX003 (ip), vehicle: Klucel (hydroxypropylcellulose) (HPC)) is listed as 6 of 6; the survivor count (dose: 150.0 mg/kg/injection, schedule: Q04DX003 (ip), vehicle: Klucel (hydroxypropylcellulose) (HPC)) is reported as 6 of 6; the survivor count (dose: 300.0 mg/kg/injection, schedule: Q04DX003 (ip), vehicle: Klucel (hydroxypropylcellulose) (HPC)) was 6 of 6.
For the compound `COc1ccc(C[n+]2ccccc2C#N)cc1OC`, the survivor count under setting [2] is recorded as 0 of 5.
With `Clc1ccc(N=NN2CCOC2)cc1`, the T/C under setting [3] was 125 % of control.
As to `CCCCN(CCCC)c1ccc(C(=N)c2ccc(N(CCCC)CCCC)cc2)cc1`, the survivor count (dose: 50.0 mg/kg/injection, schedule: Q01DX005 (ip), vehicle: Klucel (hydroxypropylcellulose) (HPC)) is given as 1 of 5; the survivor count under setting [4] was 0 of 5; the survivor count under setting [2] was 0 of 5.
Take `CSCNc1ncnc2c1ncn2C1OC(CO)C(O)C1O` (centres undefined): the survivor count (dose: 200.0 mg/kg/injection, schedule: Q04DX002 (ip), vehicle: saline with Tween-80) is on record as 3 of 6 and the survivor count (dose: 400.0 mg/kg/injection, schedule: Q04DX002 (ip), vehicle: saline with Tween-80) was 1 of 6.
For `CCC1(CC)C(=O)NC(=O)[N]([Sn]([CH3])([CH3])[N]2C(=O)NC(=O)C(CC)(CC)C2=O)C1=O`, the survivor count under setting [2] is 0 of 6.
With `CCNC(=O)OCc1c(COC(=O)NCC)c(-c2ccc(Cl)c(Cl)c2)n2c1CCC2`, the T/C reads like this: (dose: 5.0 mg/kg/injection, schedule: Q01DX009 (ip), vehicle: distilled water + Tween-80) 145 % of control; (dose: 25.0 mg/kg/injection, schedule: Q01DX009 (ip), vehicle: saline with Tween-80) 127 % of control. In addition, the survivor count (dose: 40.0 mg/kg/injection, schedule: Q01DX009 (ip), vehicle: distilled water + Tween-80) is given as 6 of 6; the survivor count (dose: 50.0 mg/kg/injection, schedule: Q01DX009 (ip), vehicle: saline with Tween-80) is listed as 3 of 6; the survivor count (dose: 100.0 mg/kg/injection, schedule: Q01DX009 (ip), vehicle: saline with Tween-80) is 2 of 6; the survivor count (dose: 200.0 mg/kg/injection, schedule: Q01DX009 (ip), vehicle: saline with Tween-80) was 0 of 6; the survivor count (dose: 400.0 mg/kg/injection, schedule: Q01DX009 (ip), vehicle: saline with Tween-80) is on record as 0 of 6.
For the compound `Cc1cc(N(CCCl)CCCl)ccc1C=Nc1ccccc1-c1ccccc1`, where the note is “dose: 266.0 mg/kg/injection, schedule: Q01DX009 (ip), vehicle: Klucel (hydroxypropylcellulose) (HPC)”, the T/C was 135 % of control.
Regarding `O=c1c2c(oc3ccccc13)Oc1oc3ccccc3c(=O)c1C2c1ccc2c(c1)OCO2`, the survivor count is reported as 6 of 6 (dose: 60.0 mg/kg/injection, schedule: Q01DX005 (ip), vehicle: saline with Tween-80); 6 of 6 (dose: 120.0 mg/kg/injection, schedule: Q01DX005 (ip), vehicle: saline with Tween-80); 6 of 6 under setting [3].
With `O=C1NC(=O)C(c2ccccc2)(c2ccccc2)C2CC3c4[nH]c5ccccc5c4CCN3CC12` (centres undefined), the survivor count was 6 of 6 (dose: 200.0 mg/kg/injection, schedule: Q01DX001 (ip), vehicle: saline) and 6 of 6 (dose: 400.0 mg/kg/injection, schedule: Q01DX001 (ip), vehicle: saline).
Regarding `CC(C)(C)c1cc(-c2cc(C(C)(C)C)nc(N)n2)nc(N)n1`, for the setting “dose: 240.0 mg/kg/injection, schedule: Q01DX005 (ip), vehicle: saline”, the survivor count is listed as 1 of 6.
`[Cl][Al]([Cl])[Cl]`: the survivor count by setting is: (dose: 50.0 mg/kg/injection, schedule: Q01DX009 (ip), vehicle: saline) 2 of 6; (dose: 100.0 mg/kg/injection, schedule: Q01DX009 (ip), vehicle: saline) 5 of 6; (dose: 100.0 mg/kg/injection, schedule: Q04DX003 (ip), vehicle: saline) 6 of 6; (dose: 200.0 mg/kg/injection, schedule: Q01DX009 (ip), vehicle: saline) 4 of 6; (dose: 400.0 mg/kg/injection, schedule: Q04DX003 (ip), vehicle: saline) 3 of 6.
In the case of `CC1(C)N=C(N)N=C(N)N1c1ccc(Cl)cc1`, the T/C (dose: 50.0 mg/kg/injection, schedule: Q01DX005 (ip), vehicle: saline) is 126 % of control. Also, the survivor count runs as follows: under setting [5], 0 of 5; under setting [6], 0 of 5.
Regarding `COC(=O)C1Cc2[nH]cnc2C(c2c(CO)cnc(C)c2O)N1` (centres undefined), the survivor count under setting [2] was 3 of 6.
On to `Nc1nc(C[P+](c2ccccc2)(c2ccccc2)c2ccccc2)c(CCCCc2ccccc2)c(=O)[nH]1`, for which the survivor count runs as follows: under setting [4], 2 of 6; under setting [2], 0 of 6.
With `COc1cc2c[n+]3c4c(cccc4c2cc1OC)CC3`, the survivor count is reported as 0 of 6 (dose: 200.0 mg/kg/injection, schedule: Q01DX009 (ip), vehicle: water) and 0 of 6 (dose: 400.0 mg/kg/injection, schedule: Q01DX009 (ip), vehicle: water).
For the compound `C=C[CH2][Sn]([CH2]C)([CH2]C)[CH2]C=C`, the T/C by setting is: (dose: 50.0 mg/kg/injection, schedule: Q01DX005 (ip), vehicle: saline, evaluated on day 20) 136 % of control; (dose: 50.0 mg/kg/injection, schedule: Q01DX005 (ip), vehicle: saline, evaluated on day 30) 125 % of control. Further, the survivor count runs as follows: under setting [5], 1 of 6; under setting [6], 0 of 6.
As to `CCN(CC)c1c(C)nnc2c3cccnc3nn12`, the survivor count is, setting by setting: (dose: 200.0 mg/kg/injection, schedule: Q01DX001 (ip), vehicle: saline with Tween-80) 0 of 6; (dose: 400.0 mg/kg/injection, schedule: Q01DX001 (ip), vehicle: saline with Tween-80) 0 of 6.
For `CCC1(c2ccccc2)OCC(C2CCCCN2)O1` (centres undefined), the survivor count under setting [1] is recorded as 0 of 6.
In the case of `CCOC(=O)c1c(C(=O)Nc2ccccc2)c(-c2ccccc2)n(NC(=O)c2cccc(Cl)c2)c1C`, for the setting “dose: 240.0 mg/kg/injection, schedule: Q01DX005 (ip), vehicle: Klucel (hydroxypropylcellulose) (HPC)”, the survivor count is reported as 1 of 6.
For `C=C(CN(C)C)C(=O)c1ccc(OC2OC(COC(C)=O)C(OC(C)=O)C(OC(C)=O)C2OC(C)=O)cc1` (centres undefined), the survivor count is on record as 1 of 6 (dose: 25.0 mg/kg/injection, schedule: Q01DX005 (ip), vehicle: saline with Tween-80); 0 of 6 (dose: 50.0 mg/kg/injection, schedule: Q01DX005 (ip), vehicle: saline with Tween-80); 0 of 6 (dose: 100.0 mg/kg/injection, schedule: Q01DX005 (ip), vehicle: saline with Tween-80); 0 of 6 (dose: 200.0 mg/kg/injection, schedule: Q01DX005 (ip), vehicle: saline with Tween-80).
As for `Cc1cc(OCc2nnc3n2S(=O)(=O)c2ccccc2N3C)ccc1Cl`, the survivor count under setting [3] is 6 of 6.
